Results are given in words; binding and its absence hold for the method and conditions named. Binding seen in cells or lysates may run through a third protein. Some entries that bind do so weakly or less than the wild type. Values belong to the molecule of their own block, whether it stands above or below them.
Legend:
[1] = target: T1, General control of amino acid synthesis 5 (GCN5) like-1 (GCN5L1) (mouse (endogenous in Neuro-2a cells and C57BL/6J brain tissue)) (UniProt O55102); assay: co-IP; endogenous proteins in Neuro-2a cell lysate; antibody (anti-Drp1 or anti-GCN5L1) on Protein A/G magnetic beads, western blot of the partner; cells treated with OGD for different times (up to 4 h), with or without Compound C (5 µM, AMPK inhibitor)
T1 sequence: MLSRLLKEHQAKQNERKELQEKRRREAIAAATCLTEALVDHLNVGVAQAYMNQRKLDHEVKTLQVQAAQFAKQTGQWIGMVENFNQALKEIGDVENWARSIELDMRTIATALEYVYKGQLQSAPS

Amino acid sequences for entries named in this document (tags omitted).
UniProt Q8K1M6: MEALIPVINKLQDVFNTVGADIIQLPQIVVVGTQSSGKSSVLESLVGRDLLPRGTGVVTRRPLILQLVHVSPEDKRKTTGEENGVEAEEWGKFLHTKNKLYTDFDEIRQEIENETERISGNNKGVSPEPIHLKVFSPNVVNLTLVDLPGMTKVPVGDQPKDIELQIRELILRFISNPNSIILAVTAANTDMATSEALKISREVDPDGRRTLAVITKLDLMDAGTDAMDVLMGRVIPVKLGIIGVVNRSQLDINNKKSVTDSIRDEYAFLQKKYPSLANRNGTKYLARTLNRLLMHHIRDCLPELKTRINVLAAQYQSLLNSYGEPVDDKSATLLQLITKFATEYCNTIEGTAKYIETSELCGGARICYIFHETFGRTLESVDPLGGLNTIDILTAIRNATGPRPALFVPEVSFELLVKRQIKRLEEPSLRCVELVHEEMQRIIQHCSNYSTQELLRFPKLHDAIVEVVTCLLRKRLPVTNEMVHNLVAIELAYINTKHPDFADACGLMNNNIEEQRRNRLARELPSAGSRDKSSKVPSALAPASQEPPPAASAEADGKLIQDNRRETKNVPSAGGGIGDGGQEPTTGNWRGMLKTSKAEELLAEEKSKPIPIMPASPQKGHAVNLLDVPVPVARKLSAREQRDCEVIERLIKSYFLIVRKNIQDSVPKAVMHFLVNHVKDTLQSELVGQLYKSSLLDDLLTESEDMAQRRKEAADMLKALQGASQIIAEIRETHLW

[2] = target: T1, General control of amino acid synthesis 5 (GCN5) like-1 (GCN5L1) (mouse (endogenous in Neuro-2a cells and C57BL/6J brain tissue)); assay: co-IP; endogenous proteins in brain tissues of dMCAO (3 days) and control (sham) mice; IP with anti-GCN5L1 or anti-Drp1, western blot of the partner
[3] = target: dynamin-related protein 1 (Drp1) (mouse (endogenous in Neuro-2a cells and C57BL/6J brain tissue)) (UniProt Q8K1M6); assay: as above
[4] = target: dynamin-related protein 1 (Drp1) (mouse (endogenous in Neuro-2a cells and C57BL/6J brain tissue)) (UniProt Q8K1M6); assay: co-IP; endogenous proteins in Neuro-2a cell lysate; antibody (anti-Drp1 or anti-GCN5L1) on Protein A/G magnetic beads, western blot of the partner; cells treated with OGD for different times (up to 4 h), with or without Compound C (5 µM, AMPK inhibitor)

binding [1]: binds
binding [2]: binds
Molecule: dynamin-related protein 1 (Drp1) (from UniProt Q8K1M6 1-736)

binding [3]: binds
binding [4]: binds
B1: General control of amino acid synthesis 5 (GCN5) like-1 (GCN5L1) (protein, UniProt O55102 1-125)
chain: T1 sequence

From publication PMC11468353
